# Measured values from the supplement of paper PMC8728848.
# Some of the results follow.
# B1: AT3G09350(27) (Arabidopsis thaliana), Q84J81 (protein)
# chain: MAKDGPNWDGLLKWSLSHADGTRPTRQLSEEDRKWFMEAMQSQTVDVVKRMKEITLVMQTPEQVLVEHGVTPEDIQDLLDELQEHVESIDMANDLHSIGGLVPLLSFLKNSHANIRAKAADVVSTIVQNNPRSQELVMETNALESLLSNFTSDTDIHARTQALGAISSLIRHNKPGVTAFKLANGYAGLRDALASDSVRFQRKALNLLQYLLQEDDSDRSIATGLGFPRVMMHLASSDDAEIREAALRGLLELSREKNDGSSSIDKSDEKLRQLLEERIKGITLMSQEDLETVKEERQLVDLLWSICYNEPSSLREKGLVVLPGEDALPPDVASKLFEPPLRASAANRNATEKKDEPMKLLGP
# What was measured:
# Test in all cases: glycan array binding signal (z-score within array); higher = stronger binding
# Conditions in all cases: glycan notation: IUPAC condensed, linker removed
# [1] = molecular target: Gal(a1-3)Gal
# Method in brief: (§1)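 The binding signal is a Z-score computed within each array and averaged over linkers. Arrays of the same protein sequence at different concentrations or buffers were also averaged together. Data originate from 3228 arrays in the Consortium for Functional Glycomics database, kept only where the protein sequence was available.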
# [2] = molecular target: Gal(a1-3)Gal(b1-3)GlcNAc
# Method in brief: as §1
# [3] = molecular target: Gal(a1-3)Gal(b1-3)GlcNAc(b1-2)Man
# Method in brief: as §1
# [4] = molecular target: Gal(a1-3)Gal(b1-3)GlcNAc(b1-2)Man(a1-3)[Gal(a1-3)Gal(b1-3)GlcNAc(b1-2)Man(a1-6)]Man(b1-4)GlcNAc(b1-4)GlcNAc
# Method in brief: as §1
# [5] = molecular target: Gal(a1-3)Gal(b1-3)GlcNAc(b1-3)GalNAc
# Method in brief: as §1
# [6] = molecular target: Gal(a1-3)Gal(b1-3)GlcNAc(b1-6)GalNAc
# Method in brief: as §1
# [7] = molecular target: Gal(a1-3)Gal(b1-3)[Fuc(a1-4)]GlcNAc(b1-2)Man(a1-3)[Gal(a1-3)Gal(b1-3)[Fuc(a1-4)]GlcNAc(b1-2)Man(a1-6)]Man(b1-4)GlcNAc(b1-4)GlcNAc
# Method in brief: as §1
# [8] = molecular target: Gal(a1-3)Gal(b1-4)Glc
# Method in brief: as §1
# [9] = molecular target: Gal(a1-3)Gal(b1-4)GlcNAc
# Method in brief: as §1
# [10] = molecular target: Gal(a1-3)Gal(b1-4)GlcNAc(b1-2)Man
# Method in brief: as §1
# [11] = molecular target: Gal(a1-3)Gal(b1-4)GlcNAc(b1-2)Man(a1-3)[Gal(a1-3)Gal(b1-4)GlcNAc(b1-2)Man(a1-6)]Man(b1-4)GlcNAc(b1-4)GlcNAc
# Method in brief: as §1
# [12] = molecular target: Gal(a1-3)Gal(b1-4)GlcNAc(b1-3)GalNAc
# Method in brief: as §1
# [13] = molecular target: Gal(a1-3)Gal(b1-4)GlcNAc(b1-6)GalNAc
# Method in brief: as §1
# [14] = molecular target: Gal(a1-3)Gal(b1-4)[Fuc(a1-3)]GlcNAc
# Method in brief: as §1
# [15] = molecular target: Gal(a1-3)Gal(b1-4)[Fuc(a1-3)]GlcNAc(b1-2)Man(a1-3)[Gal(a1-3)Gal(b1-4)[Fuc(a1-3)]GlcNAc(b1-2)Man(a1-6)]Man(b1-4)GlcNAc(b1-4)GlcNAc
# Method in brief: as §1
# [16] = molecular target: Gal(a1-3)GalNAc
# Method in brief: as §1
# [17] = molecular target: Gal(a1-3)[Gal(a1-4)]Gal(b1-4)GlcNAc
# Method in brief: as §1
# [18] = molecular target: Gal(a1-4)Gal(b1-3)GlcNAc(b1-2)Man(a1-3)[Gal(a1-4)Gal(b1-3)GlcNAc(b1-2)Man(a1-6)]Man(b1-4)GlcNAc(b1-4)GlcNAc
# Method in brief: as §1
# [19] = molecular target: Gal(a1-4)Gal(b1-4)Glc
# Method in brief: as §1
# [20] = molecular target: Gal(a1-4)Gal(b1-4)GlcNAc
# Method in brief: as §1
# [21] = molecular target: Gal(a1-4)Gal(b1-4)GlcNAc(b1-2)Man(a1-3)[Gal(a1-4)Gal(b1-4)GlcNAc(b1-2)Man(a1-6)]Man(b1-4)GlcNAc(b1-4)GlcNAc
# Method in brief: as §1
# [22] = molecular target: Gal(a1-4)Gal(b1-4)GlcNAc(b1-3)Gal(b1-4)Glc
# Method in brief: as §1
# [23] = molecular target: Gal(a1-4)GlcNAc
# Method in brief: as §1
# [24] = molecular target: Gal(a1-6)Glc
# Method in brief: as §1
# [25] = molecular target: Gal(b1-2)Gal
# Method in brief: as §1
# [26] = molecular target: Gal(b1-3)Gal
# Method in brief: as §1
# [27] = molecular target: Gal(b1-3)Gal(b1-4)GlcNAc
# Method in brief: as §1
# [28] = molecular target: Gal(b1-3)GalNAc
# Method in brief: as §1
# [29] = molecular target: Gal(b1-3)GalNAc(a1-3)[Fuc(a1-2)]Gal(b1-4)Glc
# Method in brief: as §1
# [30] = molecular target: Gal(b1-3)GalNAc(a1-3)[Fuc(a1-2)]Gal(b1-4)GlcNAc
# Method in brief: as §1
# [31] = molecular target: Gal(b1-3)GalNAc(b1-3)Gal
# Method in brief: as §1
# [32] = molecular target: Gal(b1-3)GalNAc(b1-3)Gal(a1-4)Gal(b1-4)Glc
# Method in brief: as §1
# [33] = molecular target: Gal(b1-3)GalNAc(b1-4)Gal(b1-4)Glc
# Method in brief: as §1
# [34] = molecular target: Gal(b1-3)GalNAc(b1-4)[Neu5Ac(a2-3)]Gal(b1-4)Glc
# Method in brief: as §1
# [35] = molecular target: Gal(b1-3)GlcNAc
# Method in brief: as §1
# [36] = molecular target: Gal(b1-3)GlcNAc(a1-3)Gal(b1-4)GlcNAc
# Method in brief: as §1
# [37] = molecular target: Gal(b1-3)GlcNAc(a1-6)Gal(b1-4)GlcNAc
# Method in brief: as §1
# [38] = molecular target: Gal(b1-3)GlcNAc(b1-2)Man
# Method in brief: as §1
binder,measurement,setting,value
B1,glycan array binding signal (z-score),[1],0.145
same,glycan array binding signal (z-score),[2],0.324
same,glycan array binding signal (z-score),[3],0.248
same,glycan array binding signal (z-score),[4],0.459
same,glycan array binding signal (z-score),[5],-0.377
same,glycan array binding signal (z-score),[6],-0.449
same,glycan array binding signal (z-score),[7],0.045
same,glycan array binding signal (z-score),[8],-0.343
same,glycan array binding signal (z-score),[9],-0.709
same,glycan array binding signal (z-score),[10],1.33
same,glycan array binding signal (z-score),[11],0.636
same,glycan array binding signal (z-score),[12],0
same,glycan array binding signal (z-score),[13],-0.714
same,glycan array binding signal (z-score),[14],-0.122
same,glycan array binding signal (z-score),[15],-0.652
same,glycan array binding signal (z-score),[16],2.5
same,glycan array binding signal (z-score),[17],8.94
same,glycan array binding signal (z-score),[18],-0.228
same,glycan array binding signal (z-score),[19],2.11
same,glycan array binding signal (z-score),[20],0.589
same,glycan array binding signal (z-score),[21],0.684
same,glycan array binding signal (z-score),[22],0.321
same,glycan array binding signal (z-score),[23],-0.641
same,glycan array binding signal (z-score),[24],-0.554
same,glycan array binding signal (z-score),[25],-0.771
same,glycan array binding signal (z-score),[26],-0.545
same,glycan array binding signal (z-score),[27],-0.117
same,glycan array binding signal (z-score),[28],-0.049
same,glycan array binding signal (z-score),[29],-0.346
same,glycan array binding signal (z-score),[30],-0.501
same,glycan array binding signal (z-score),[31],-0.768
same,glycan array binding signal (z-score),[32],-0.504
same,glycan array binding signal (z-score),[33],1.91
same,glycan array binding signal (z-score),[34],-0.618
same,glycan array binding signal (z-score),[35],0.365
same,glycan array binding signal (z-score),[36],-0.421
same,glycan array binding signal (z-score),[37],-0.013
same,glycan array binding signal (z-score),[38],-0.177

# For convenience, part of the list above.
binder,measurement,setting,value
B1,glycan array binding signal (z-score),[30],-0.501
same,glycan array binding signal (z-score),[31],-0.768
